US20110245284A1, “Alkoxy- and Alkylthio-Substituted Anilinopyrimidines” (Bayer CropScience AG, priority 2008, published 2011)
Some entries share one result that the patent states for a list of compounds.

What was measured:
Leptosphaeria nodorum = Leptosphaeria nodorum test (wheat) / protective; format: in vivo; conditions: active compound concentration 500 ppm, evaluation 7-9 days after inoculation
Method: Thereafter, the plants are placed in a greenhouse at 90% relative atmospheric humidity and a temperature of 22° C.

Sphaerotheca fuliginea = experiment: Sphaerotheca test (cucumber) / protective; format: in vivo; conditions: active compound concentration 500 ppm, evaluation 7 days after inoculation
Method: The plants are subsequently placed in a greenhouse at 70% relative atmospheric humidity and a temperature of 23° C.

Venturia inaequalis = experiment: Venturia test (apple) / protective; format: in vivo; conditions: active compound concentration 100 ppm, evaluation 10 days after inoculation
Method: After the spray coating has dried on, the plants are inoculated with an aqueous conidia suspension of the apple scab pathogen Venturia inaequalis and then remain for 1 day in an incubation cabinet at about 20° C. and 100% relative atmospheric humidity.

Alternaria solani = experiment: Alternaria test (tomato) / protective; format: in vivo; conditions: active compound concentration 100 ppm, evaluation 3 days after inoculation
Method: The plants are then placed in an incubation cabinet at about 20° C. and 100% relative atmospheric humidity.

Pyrenophora teres = Pyrenophora teres test (barley) / protective; format: in vivo; conditions: active compound concentration 500 ppm, evaluation 8 days after inoculation
Method: After the spray coating has dried on, the plants are sprayed with a spore suspension of Pyrenophora teres. The plants remain in an incubation cabinet for 48 hours at 20° C. and 100% relative atmospheric humidity.

Phakopsora pachyrhizi = experiment: Phakopsora test (soya beans) / protective; format: in vivo; conditions: active compound concentration 250 ppm, evaluation 1 day after inoculation
Pyricularia oryzae = conditions: in vivo
Rhizoctonia solani = experiment: Rhizoctonia test (rice) / protective; format: in vivo; conditions: active compound concentration 250 ppm, evaluation 4 days after inoculation
Gibberella zeae = format: in vivo; conditions: rice, protective, active compound concentration 250 ppm, evaluation 5 days after inoculation

SMILES	efficacy (Leptosphaeria nodorum)	efficacy (Sphaerotheca fuliginea)	also measured
FC(F)C(F)(F)COCc1cccc(Nc2ncc(Cl)c(NC3CC3)n2)c1 [Example 232]	≥ 70%	–	–
COCCOCCOc1ccc(Nc2ncc(C(F)(F)F)c(NC3CC3)n2)cc1Cl [Example 156]	≥ 70%	–	–
FC(F)(F)c1cnc(Nc2cccc(COc3ccc4c(c3)OCO4)c2)nc1NC1CC1 [Example 227]	≥ 70%	≥ 70%	–
CCS(=O)(=O)c1ccc(Nc2ncc(C(F)(F)F)c(NC3CC3)n2)cc1 [Example 55]	–	–	efficacy (Venturia inaequalis): ≥ 70%; efficacy (Alternaria solani): ≥ 70%; efficacy (Pyrenophora teres): ≥ 70%
CCCC(C)SC(C)c1cccc(Nc2ncc(C(F)(F)F)c(NC3CC3)n2)c1 (stereo not drawn) [Example 135]	≥ 70%	≥ 70%	efficacy (Alternaria solani): ≥ 70%; efficacy (Phakopsora pachyrhizi): ≥ 80%
FC(F)C(F)(F)COCc1cccc(Nc2ncc(C(F)(F)F)c(NC3CC3)n2)c1 [Example 231]	≥ 70%	–	–
COCc1cccc(Nc2ncc(Cl)c(NC3CC3C(F)(F)F)n2)c1 (stereo not drawn) [Example 208]	≥ 70%	–	–
CCOC(CSc1cccc(Nc2ncc(C(F)(F)F)c(NC3CC3)n2)c1)OCC [Example 236]	≥ 70%	–	–
CC[S+]([O-])C(C)c1cccc(Nc2ncc(C(F)(F)F)c(NC3CCCC3)n2)c1 (stereo not drawn) [Example 42]	≥ 70%	≥ 70%	–
COC(C)c1cccc(Nc2ncc(Cl)c(NC3CC3C(F)(F)F)n2)c1 (stereo not drawn) [Example 211]	≥ 70%	–	efficacy (Venturia inaequalis): ≥ 70%
Fc1cccc(Nc2ncc(Cl)c(NC3CC3)n2)c1 [Example 86]	≥ 70%	–	efficacy (Pyricularia oryzae): ≥ 80%; efficacy (Rhizoctonia solani): ≥ 80%
COCC(C)Oc1ccc(Nc2ncc(Cl)c(NC3CC3)n2)cc1Cl (stereo not drawn) [Example 158]	≥ 70%	–	–
CCSC(C)c1cccc(Nc2ncc(Cl)c(NC3CC3C(F)(F)F)n2)c1 (stereo not drawn) [Example 223]	≥ 70%	–	–
COCC(C)Oc1ccc(Nc2ncc(Cl)c(NC3CC3)n2)cc1C(F)(F)F (stereo not drawn) [Example 72]	≥ 70%	–	–
CCS(=O)(=O)C(C)c1cccc(Nc2ncc(C(F)(F)F)c(NC3CCCC3)n2)c1 (stereo not drawn) [Example 39]	≥ 70%	≥ 70%	–
CCCC(C)SC(C)c1cccc(Nc2ncc(Cl)c(NC3CC3)n2)c1 (stereo not drawn) [Example 134]	≥ 70%	≥ 70%	efficacy (Alternaria solani): ≥ 70%
COCc1cccc(Nc2ncc(Cl)c(NCCF)n2)c1 [Example 138]	–	–	efficacy (Gibberella zeae): ≥ 80%
COCCOCCOc1ccc(Nc2ncc(Br)c(NC3CC3)n2)cc1 [Example 2]	≥ 70%	–	–
COC(c1cccc(Nc2ncc(Cl)c(NCC(F)F)n2)c1)C(F)(F)F (stereo not drawn) [Example 23]	≥ 70%	–	–
COCc1cccc(Nc2ncc(Cl)c(NC(C)(C)C(C)=O)n2)c1 [Example 9]	≥ 70%	–	–
COCc1cccc(Nc2ncc(Cl)c(NC(C)C)n2)c1 [Example 26]	–	–	efficacy (Gibberella zeae): ≥ 80%
FC(F)(F)COCc1cccc(Nc2ncc(Cl)c(NC3CC3)n2)c1 [Example 224]	≥ 70%	≥ 70%	–
COCCOC(c1cccc(Nc2ncc(C(F)(F)F)c(NC3CC3)n2)c1)C(F)(F)F (stereo not drawn) [Example 216]	≥ 70%	–	efficacy (Venturia inaequalis): ≥ 70%; efficacy (Alternaria solani): ≥ 70%
COC(COCc1cccc(Nc2ncc(C(F)(F)F)c(NC3CC3)n2)c1)OC [Example 237]	≥ 70%	–	–

SMILES	efficacy (Leptosphaeria nodorum)	efficacy (Sphaerotheca fuliginea)	also measured
COCC(C)Oc1ccc(Nc2ncc(C(F)(F)F)c(NC3CC3)n2)cc1Cl (stereo not drawn) [Example 78]	≥ 70%	–	–
CCCN(c1nc(Nc2cccc(COC)c2)ncc1Cl)C1CC1 [Example 136]	≥ 70%	–	–
CCCC(C)[S+]([O-])C(C)c1cccc(Nc2ncc(C(F)(F)F)c(NC3CC3)n2)c1 (stereo not drawn) [Example 167]	≥ 70%	≥ 70%	–
COCc1cccc(Nc2ncc(Cl)c(N3CCOCC3)n2)c1 [Example 90]	≥ 70%	–	–
COC(c1cccc(Nc2ncc(Cl)c(NC3CCC3)n2)c1)C(F)(F)F (stereo not drawn) [Example 21]	≥ 70%	≥ 70%	efficacy (Pyricularia oryzae): ≥ 80%
CC[S+]([O-])C(C)c1cccc(Nc2ncc(C(F)(F)F)c(NCC3CC3)n2)c1 (stereo not drawn) [Example 44]	–	≥ 70%	–
COCCOCCOc1ccc(Nc2ncc(Cl)c(NC3CC3)n2)cc1C(F)(F)F [Example 181]	≥ 70%	–	–
CCS(=O)(=O)C(C)c1cccc(Nc2ncc(C(F)(F)F)c(NCC3CC3)n2)c1 (stereo not drawn) [Example 41]	≥ 70%	≥ 70%	–
CCS(=O)(=O)C(C)c1cccc(Nc2ncc(C(F)(F)F)c(NC3CC3)n2)c1 (stereo not drawn) [Example 46]	–	≥ 70%	–
CCCC(C)S(=O)(=O)C(C)c1cccc(Nc2ncc(C(F)(F)F)c(NC3CC3)n2)c1 (stereo not drawn) [Example 168]	≥ 70%	–	–
CCOCCOCCSc1cccc(Nc2ncc(Cl)c(NC3CC3)n2)c1 [Example 180]	≥ 70%	–	efficacy (Pyrenophora teres): ≥ 70%
COCCOc1cccc(Nc2ncc(Cl)c(NC3CC3C(F)(F)F)n2)c1 (stereo not drawn) [Example 210]	≥ 70%	–	–
CCSC(C)c1cccc(Nc2ncc(Br)c(NC3CC(C)C3)n2)c1 (stereo not drawn) [Example 214]	≥ 70%	–	–
CCC(C)Sc1cccc(Nc2ncc(Cl)c(NC3CCC3)n2)c1 (stereo not drawn) [Example 6]	–	–	efficacy (Gibberella zeae): ≥ 80%
CCN(c1nc(Nc2cccc(COC)c2)ncc1Cl)C1CC1 [Example 137]	≥ 70%	≥ 70%	efficacy (Alternaria solani): ≥ 70%
COC(C)c1cccc(Nc2ncc(Cl)c(NC(C)C)n2)c1 (stereo not drawn) [Example 129]	–	–	efficacy (Gibberella zeae): ≥ 80%
COCCOC(c1cccc(Nc2ncc(Cl)c(NC3CC3)n2)c1)C(F)(F)F (stereo not drawn) [Example 215]	≥ 70%	–	–
CC[S+]([O-])C(C)c1cccc(Nc2ncc(C(F)(F)F)c(NC3CC3)n2)c1 (stereo not drawn) [Example 45]	–	≥ 70%	efficacy (Pyrenophora teres): ≥ 70%
COC(c1cccc(Nc2ncc(Br)c(NC3CCC3)n2)c1)C(F)(F)F (stereo not drawn) [Example 10]	≥ 70%	≥ 70%	–
CCSC(C)c1cccc(Nc2ncc(C(F)(F)F)c(NC3CCC3)n2)c1 (stereo not drawn) [Example 36]	≥ 70%	≥ 70%	–
COCc1cccc(Nc2ncc(Cl)c(NCCCN3CCCCCC3=O)n2)c1 [Example 52]	–	–	efficacy (Venturia inaequalis): ≥ 70%; efficacy (Alternaria solani): ≥ 70%
COCCOC(c1cccc(Nc2ncc(Br)c(NC3CC3)n2)c1)C(F)(F)F (stereo not drawn) [Example 217]	≥ 70%	–	efficacy (Venturia inaequalis): ≥ 70%; efficacy (Alternaria solani): ≥ 70%
COCC(C)Oc1ccc(Nc2ncc(Br)c(NC3CC3)n2)cc1Cl (stereo not drawn) [Example 4]	≥ 70%	–	efficacy (Rhizoctonia solani): ≥ 80%
COCC(C)Oc1ccc(Nc2ncc(Br)c(NC3CC(C)C3)n2)cc1 (stereo not drawn) [Example 213]	≥ 70%	–	–
